No constants are given. Whether binding was seen depends on the method and setting. Binding seen in cells or lysates may run through a third protein. Some entries that bind do so weakly or less than the wild type.
Molecular target: endogenous Nesprin-2 (human (endogenous in the paper's human cell lines)) (UniProt Q8WXH0)
Assay: co-IP; 2 mg cell lysate incubated with 2 μg anti-Nesprin-2 Ab2 for 16 h, then 10 μl protein A/G PLUS-agarose beads for 1 h at 4 °C; endogenous proteins

Amino acid sequences for entries named in this document (tags omitted).
UniProt O15085: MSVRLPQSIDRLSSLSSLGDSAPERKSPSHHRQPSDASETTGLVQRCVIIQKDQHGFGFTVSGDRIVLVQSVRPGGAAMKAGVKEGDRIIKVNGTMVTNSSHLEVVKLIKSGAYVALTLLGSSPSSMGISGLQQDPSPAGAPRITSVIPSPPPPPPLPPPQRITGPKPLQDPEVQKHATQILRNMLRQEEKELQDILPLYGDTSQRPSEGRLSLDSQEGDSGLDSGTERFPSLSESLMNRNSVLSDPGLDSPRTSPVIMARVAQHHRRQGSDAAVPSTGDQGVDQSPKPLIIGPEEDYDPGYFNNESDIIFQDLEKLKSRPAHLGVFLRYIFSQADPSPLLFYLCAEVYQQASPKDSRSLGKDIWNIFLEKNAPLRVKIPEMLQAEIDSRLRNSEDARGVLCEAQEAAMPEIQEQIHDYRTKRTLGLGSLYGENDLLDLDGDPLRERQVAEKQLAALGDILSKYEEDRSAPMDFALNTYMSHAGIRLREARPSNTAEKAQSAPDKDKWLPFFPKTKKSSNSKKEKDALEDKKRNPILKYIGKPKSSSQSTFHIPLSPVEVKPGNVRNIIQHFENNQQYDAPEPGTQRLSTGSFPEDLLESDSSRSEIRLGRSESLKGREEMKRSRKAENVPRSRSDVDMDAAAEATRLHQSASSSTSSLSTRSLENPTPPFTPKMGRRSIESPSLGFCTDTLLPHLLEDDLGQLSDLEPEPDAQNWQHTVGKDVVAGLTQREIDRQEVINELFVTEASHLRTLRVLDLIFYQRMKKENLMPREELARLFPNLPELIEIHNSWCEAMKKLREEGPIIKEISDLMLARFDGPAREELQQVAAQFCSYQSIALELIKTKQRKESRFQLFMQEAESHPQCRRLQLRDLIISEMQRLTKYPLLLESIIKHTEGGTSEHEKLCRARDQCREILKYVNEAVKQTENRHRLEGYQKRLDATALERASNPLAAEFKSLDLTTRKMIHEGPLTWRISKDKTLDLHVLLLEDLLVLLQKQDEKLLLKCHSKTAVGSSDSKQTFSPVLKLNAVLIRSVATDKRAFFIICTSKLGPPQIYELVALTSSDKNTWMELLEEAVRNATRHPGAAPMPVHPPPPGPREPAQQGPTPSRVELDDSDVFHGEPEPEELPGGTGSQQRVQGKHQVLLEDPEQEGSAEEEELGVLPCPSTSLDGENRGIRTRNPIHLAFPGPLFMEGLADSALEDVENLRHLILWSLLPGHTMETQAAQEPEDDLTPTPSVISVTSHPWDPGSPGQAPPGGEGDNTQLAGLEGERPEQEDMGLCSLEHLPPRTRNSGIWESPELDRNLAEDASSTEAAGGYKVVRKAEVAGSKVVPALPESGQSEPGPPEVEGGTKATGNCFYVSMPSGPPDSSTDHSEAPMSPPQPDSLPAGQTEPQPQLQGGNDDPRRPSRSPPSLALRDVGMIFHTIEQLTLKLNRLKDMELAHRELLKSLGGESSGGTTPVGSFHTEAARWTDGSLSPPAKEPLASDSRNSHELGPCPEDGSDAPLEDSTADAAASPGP

binding: binds
Substance: endogenous PDZ RhoGEF (from UniProt O15085 1-1522)

From publication PMC12528419
